In this test the target is human complement factor D (Homo sapiens, UniProt P00746). The test can be described thus: In vitro enzyme inhibition of human complement factor D (Z-Lys-SBzl/DTNB, A405). The conditions noted are these: read-out: CFD IC50; biochemical assay, substrate Z-Lys-SBzl.

Chains of the proteins cited; added tags and fusions are not shown. Residues count along the entry.
UniProt P00746, 26-253 limits assumed: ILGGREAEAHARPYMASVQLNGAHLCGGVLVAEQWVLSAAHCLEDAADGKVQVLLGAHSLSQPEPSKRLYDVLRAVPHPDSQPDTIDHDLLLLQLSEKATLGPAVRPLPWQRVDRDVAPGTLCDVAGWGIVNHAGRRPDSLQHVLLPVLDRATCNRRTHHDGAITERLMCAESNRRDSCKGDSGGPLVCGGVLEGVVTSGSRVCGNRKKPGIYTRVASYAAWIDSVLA

The structures given here were assigned with low confidence; some may be wrong.

In general, IC50 refers to the point on the concentration scale where inhibition reaches its midpoint. As for `CC(CCN)N(CC(=O)NCc1cccc(F)c1Cl)C(=O)Cn1nc(C(N)=O)c2ccccc21` (centres unmarked), the 50% inhibitory concentration (IC50) fell in the range of 100 to 1000 nM.
The figure for `NC(=O)c1nn(CC(=O)N(CC(=O)NCc2cccc(F)c2Cl)C(CF)CF)c2ccccc12` is 1000 to 10000 nM.

These data come from patent publication US20190292155A1, “THERAPEUTIC INHIBITORY COMPOUNDS” (LifeSci Pharmaceuticals, Inc., priority 2016, published 2019).
